The values that follow are results of earlier work, collected in paper PMC5629133 (Drugs in R&D, 2017).

SMILES strings stand for the structures.

For this data set, the system named is human AGP variants. Conditions: separate AGP variants; cited from earlier work.

`CCN(CC)CC(=O)Nc1c(C)cccc1C` [lignocaine]: the “AGP variant to which the drug binds” value is reported as “to both variants”.
